The supplement of paper PMC12819154, “High-throughput peptide-centric local stability assay extends protein–ligand identification to membrane proteins, tissues and bacteria” (Nature Structural & Molecular Biology, 2025)
The other results are listed elsewhere or left out. Most values lie at the level of the controls, where differences are scatter.

Sequences of proteins named here, by UniProt entry; tags and fusion partners are left off. A change or cut given only in a name is not applied to a line headed by its entry.
UniProt Q80YV3, whole entry: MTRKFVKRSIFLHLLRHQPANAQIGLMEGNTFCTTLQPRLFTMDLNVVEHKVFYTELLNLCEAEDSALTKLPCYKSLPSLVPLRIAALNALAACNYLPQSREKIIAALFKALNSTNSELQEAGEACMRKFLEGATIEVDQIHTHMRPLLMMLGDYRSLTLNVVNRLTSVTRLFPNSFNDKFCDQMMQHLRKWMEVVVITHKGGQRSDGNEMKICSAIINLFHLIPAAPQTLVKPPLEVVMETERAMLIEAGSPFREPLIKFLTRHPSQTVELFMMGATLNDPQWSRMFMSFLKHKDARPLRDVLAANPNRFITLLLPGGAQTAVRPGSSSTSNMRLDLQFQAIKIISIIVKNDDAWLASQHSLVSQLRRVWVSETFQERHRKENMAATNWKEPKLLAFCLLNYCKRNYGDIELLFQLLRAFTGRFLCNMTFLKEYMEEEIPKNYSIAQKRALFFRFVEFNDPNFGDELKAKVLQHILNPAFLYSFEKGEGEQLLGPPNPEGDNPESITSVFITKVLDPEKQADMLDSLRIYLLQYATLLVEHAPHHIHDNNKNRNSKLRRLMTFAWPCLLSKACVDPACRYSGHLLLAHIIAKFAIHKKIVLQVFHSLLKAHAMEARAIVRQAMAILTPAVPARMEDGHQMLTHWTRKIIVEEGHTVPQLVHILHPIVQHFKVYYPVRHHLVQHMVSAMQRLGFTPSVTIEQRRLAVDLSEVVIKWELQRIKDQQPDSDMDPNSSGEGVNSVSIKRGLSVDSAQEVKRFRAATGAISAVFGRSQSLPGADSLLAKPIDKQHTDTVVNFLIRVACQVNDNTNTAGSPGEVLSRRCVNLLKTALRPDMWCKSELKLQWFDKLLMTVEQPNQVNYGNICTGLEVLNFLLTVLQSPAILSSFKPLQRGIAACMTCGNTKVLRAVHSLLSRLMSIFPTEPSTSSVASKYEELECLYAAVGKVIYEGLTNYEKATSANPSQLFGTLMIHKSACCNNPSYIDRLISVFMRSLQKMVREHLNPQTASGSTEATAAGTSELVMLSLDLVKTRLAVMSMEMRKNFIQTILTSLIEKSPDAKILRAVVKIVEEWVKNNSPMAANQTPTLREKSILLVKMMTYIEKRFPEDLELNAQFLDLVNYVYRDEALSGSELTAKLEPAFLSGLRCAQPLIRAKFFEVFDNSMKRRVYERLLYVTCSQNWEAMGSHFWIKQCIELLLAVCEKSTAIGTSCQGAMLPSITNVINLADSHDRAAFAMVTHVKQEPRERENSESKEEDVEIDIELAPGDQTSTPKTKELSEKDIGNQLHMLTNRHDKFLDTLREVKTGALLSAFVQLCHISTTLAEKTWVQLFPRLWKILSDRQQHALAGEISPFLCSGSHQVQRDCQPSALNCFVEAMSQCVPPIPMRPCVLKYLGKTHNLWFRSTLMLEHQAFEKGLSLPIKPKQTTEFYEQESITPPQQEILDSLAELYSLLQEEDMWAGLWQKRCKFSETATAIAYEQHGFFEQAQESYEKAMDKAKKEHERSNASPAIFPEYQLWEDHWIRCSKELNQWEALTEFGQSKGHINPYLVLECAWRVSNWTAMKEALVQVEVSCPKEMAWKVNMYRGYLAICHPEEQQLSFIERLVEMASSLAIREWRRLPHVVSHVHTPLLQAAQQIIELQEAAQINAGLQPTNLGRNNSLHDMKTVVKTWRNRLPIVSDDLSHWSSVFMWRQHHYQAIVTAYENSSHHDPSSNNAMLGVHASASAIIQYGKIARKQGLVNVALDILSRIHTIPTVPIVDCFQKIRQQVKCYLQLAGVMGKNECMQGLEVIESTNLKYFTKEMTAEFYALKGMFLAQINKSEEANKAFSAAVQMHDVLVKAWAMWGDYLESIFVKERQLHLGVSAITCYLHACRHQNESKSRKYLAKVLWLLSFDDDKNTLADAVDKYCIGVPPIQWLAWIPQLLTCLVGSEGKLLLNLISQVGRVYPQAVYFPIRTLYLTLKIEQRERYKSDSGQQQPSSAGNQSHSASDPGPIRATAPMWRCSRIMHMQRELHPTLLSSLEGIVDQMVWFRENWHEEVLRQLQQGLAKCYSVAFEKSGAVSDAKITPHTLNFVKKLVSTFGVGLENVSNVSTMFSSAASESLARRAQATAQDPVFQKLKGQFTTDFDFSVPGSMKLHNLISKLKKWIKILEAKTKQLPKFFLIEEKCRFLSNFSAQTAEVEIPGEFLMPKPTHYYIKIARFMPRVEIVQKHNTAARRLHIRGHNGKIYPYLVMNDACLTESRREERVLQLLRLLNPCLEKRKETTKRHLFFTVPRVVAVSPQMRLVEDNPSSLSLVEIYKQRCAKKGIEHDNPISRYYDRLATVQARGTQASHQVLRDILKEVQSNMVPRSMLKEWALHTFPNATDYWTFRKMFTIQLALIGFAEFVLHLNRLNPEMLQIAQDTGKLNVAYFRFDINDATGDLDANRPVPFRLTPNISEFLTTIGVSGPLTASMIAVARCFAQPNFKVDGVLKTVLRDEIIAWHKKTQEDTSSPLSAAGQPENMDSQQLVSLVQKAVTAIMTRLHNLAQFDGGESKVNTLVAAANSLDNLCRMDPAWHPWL
UniProt Q8BGF6: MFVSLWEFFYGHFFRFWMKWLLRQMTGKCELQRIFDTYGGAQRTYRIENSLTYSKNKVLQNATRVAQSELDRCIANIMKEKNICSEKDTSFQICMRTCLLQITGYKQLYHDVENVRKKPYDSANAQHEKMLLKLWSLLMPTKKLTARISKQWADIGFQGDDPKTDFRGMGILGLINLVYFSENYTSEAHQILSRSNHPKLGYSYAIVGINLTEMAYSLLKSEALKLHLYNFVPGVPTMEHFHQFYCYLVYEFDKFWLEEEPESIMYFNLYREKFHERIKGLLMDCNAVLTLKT
UniProt Q8BH44: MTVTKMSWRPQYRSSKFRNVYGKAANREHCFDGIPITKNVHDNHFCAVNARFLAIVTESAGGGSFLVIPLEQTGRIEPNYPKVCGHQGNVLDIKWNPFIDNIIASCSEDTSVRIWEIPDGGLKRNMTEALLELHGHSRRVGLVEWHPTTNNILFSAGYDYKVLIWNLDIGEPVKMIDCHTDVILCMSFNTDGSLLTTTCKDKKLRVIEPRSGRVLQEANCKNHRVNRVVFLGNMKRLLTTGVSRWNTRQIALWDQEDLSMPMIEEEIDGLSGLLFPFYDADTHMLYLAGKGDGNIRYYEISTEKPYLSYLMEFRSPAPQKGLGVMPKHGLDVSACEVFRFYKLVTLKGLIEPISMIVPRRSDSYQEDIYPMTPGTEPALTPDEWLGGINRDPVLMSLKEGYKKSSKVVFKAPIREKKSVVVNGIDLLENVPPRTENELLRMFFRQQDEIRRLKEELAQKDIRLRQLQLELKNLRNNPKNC
UniProt Q812A2: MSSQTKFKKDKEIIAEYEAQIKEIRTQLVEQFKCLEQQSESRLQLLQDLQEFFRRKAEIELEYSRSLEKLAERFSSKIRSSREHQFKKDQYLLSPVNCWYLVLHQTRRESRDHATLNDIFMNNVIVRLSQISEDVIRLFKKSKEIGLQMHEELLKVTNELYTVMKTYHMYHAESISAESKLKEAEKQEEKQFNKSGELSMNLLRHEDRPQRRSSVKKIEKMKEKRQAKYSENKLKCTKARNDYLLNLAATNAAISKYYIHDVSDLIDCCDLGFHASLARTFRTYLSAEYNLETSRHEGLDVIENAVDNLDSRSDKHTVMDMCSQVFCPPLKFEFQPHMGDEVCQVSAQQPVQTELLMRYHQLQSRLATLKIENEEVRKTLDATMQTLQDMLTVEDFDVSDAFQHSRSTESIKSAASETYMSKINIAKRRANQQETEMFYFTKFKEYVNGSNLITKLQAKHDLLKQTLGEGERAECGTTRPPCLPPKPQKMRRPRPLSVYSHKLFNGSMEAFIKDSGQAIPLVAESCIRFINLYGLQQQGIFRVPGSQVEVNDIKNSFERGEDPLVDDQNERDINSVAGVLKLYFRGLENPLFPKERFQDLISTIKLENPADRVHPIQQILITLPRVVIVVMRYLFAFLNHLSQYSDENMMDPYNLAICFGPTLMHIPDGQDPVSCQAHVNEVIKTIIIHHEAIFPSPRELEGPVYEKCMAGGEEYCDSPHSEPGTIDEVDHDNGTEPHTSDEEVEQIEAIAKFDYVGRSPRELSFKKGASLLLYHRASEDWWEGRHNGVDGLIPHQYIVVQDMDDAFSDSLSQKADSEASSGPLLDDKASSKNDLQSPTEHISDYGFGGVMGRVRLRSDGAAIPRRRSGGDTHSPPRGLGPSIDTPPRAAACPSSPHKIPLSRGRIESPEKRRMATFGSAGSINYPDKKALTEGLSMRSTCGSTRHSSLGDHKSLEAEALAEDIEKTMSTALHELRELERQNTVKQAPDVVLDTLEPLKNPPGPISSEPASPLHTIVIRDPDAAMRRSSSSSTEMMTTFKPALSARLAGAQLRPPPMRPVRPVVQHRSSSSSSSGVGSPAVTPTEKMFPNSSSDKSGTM
UniProt Q8BH70: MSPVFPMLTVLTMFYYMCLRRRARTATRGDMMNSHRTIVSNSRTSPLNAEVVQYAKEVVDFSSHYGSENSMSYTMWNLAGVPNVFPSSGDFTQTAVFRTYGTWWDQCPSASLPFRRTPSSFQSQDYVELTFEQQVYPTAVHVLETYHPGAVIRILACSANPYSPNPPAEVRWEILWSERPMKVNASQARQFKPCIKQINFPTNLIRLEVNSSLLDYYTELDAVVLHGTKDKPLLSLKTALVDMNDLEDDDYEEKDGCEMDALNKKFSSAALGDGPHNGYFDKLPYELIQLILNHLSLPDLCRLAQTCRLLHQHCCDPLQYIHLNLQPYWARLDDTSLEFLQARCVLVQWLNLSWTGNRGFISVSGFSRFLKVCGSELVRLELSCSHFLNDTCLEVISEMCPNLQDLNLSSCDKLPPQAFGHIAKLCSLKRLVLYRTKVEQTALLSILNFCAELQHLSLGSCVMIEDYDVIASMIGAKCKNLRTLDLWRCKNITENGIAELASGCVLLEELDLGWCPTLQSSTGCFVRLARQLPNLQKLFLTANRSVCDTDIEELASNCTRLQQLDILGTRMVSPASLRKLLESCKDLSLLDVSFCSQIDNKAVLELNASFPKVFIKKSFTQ
UniProt Q80XA6: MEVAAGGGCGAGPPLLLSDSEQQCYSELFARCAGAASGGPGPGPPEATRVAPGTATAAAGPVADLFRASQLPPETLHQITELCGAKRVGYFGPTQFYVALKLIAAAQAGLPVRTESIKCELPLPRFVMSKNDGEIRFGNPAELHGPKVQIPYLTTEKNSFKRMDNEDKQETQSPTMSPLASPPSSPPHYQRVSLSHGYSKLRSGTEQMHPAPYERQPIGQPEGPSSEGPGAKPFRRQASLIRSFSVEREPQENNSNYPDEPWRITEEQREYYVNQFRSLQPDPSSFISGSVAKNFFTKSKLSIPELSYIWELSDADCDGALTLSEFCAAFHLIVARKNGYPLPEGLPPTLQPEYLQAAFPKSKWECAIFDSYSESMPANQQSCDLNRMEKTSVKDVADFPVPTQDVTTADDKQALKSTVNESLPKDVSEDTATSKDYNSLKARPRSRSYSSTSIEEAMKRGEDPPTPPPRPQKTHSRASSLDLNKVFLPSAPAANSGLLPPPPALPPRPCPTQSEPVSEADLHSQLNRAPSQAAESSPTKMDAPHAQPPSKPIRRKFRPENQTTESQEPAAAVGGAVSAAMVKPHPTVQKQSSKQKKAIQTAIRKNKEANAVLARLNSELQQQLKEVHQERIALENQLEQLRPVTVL

What follows are targets tested with CN[C@@H]1C[C@H]2O[C@@](C)([C@@H]1OC)n1c3ccccc3c3c4c(c5c6ccccc6n2c5c31)C(=O)NC4 [staurosporine] (assay: log2 fold change of tryptic peptide abundance, ligand vs vehicle (limited proteolysis) (log2 ratio); higher = more trypsin-susceptible (destabilized)). Details: ligand concentration: 20 uM; sample: mouse liver crude lysate; replicate design: treated separately.

Q: With “UniProt Q80YV3 (peptide sequence: AQATAQDPVFQK, peptide start residue: 2110)” as the target, how does the log2 fold change read?
A: 0.134

Q: For “UniProt Q8BGF6 (peptide sequence: KKPYDSANAQHEK, peptide start residue: 117)”, which log2 fold change is on record?
A: -0.306

Q: How did the log2 fold change turn out when “UniProt Q8BH44 (peptide sequence: LKEELAQK, peptide start residue: 452)” was run?
A: -0.335

Q: “UniProt Q812A2 (peptide sequence: RPRPLSVYSHK, peptide start residue: 492)” was tested. Which log2 fold change did it give?
A: 0.235

Q: With “UniProt Q8BH70 (peptide sequence: GDMMNSHR, peptide start residue: 29)” as the target, how does the log2 fold change read?
A: -0.0805

Q: How did the log2 fold change turn out when “UniProt Q80XA6 (peptide sequence: AIQTAIRK, peptide start residue: 598)” was run?
A: -0.371
